Source: US20240182593A1
No constants are given. Whether binding was seen depends on the method and setting. Binding can be weak; no strength is given.

Molecular target: cynomolgus monkey OX40 (R&D, Cat. 10311-OX) (cynomolgus monkey)
Assay: ELISA, cynomolgus monkey OX40 coated at 0.5 ug/ml, serially diluted antibody, goat anti-human Fab secondary antibody, O.D. 450 nm

| binding | Binder |
| --- | --- |
| binds | O410 (antibody, human IgG1, lambda, V domains shown) VH: EVQLLESGGGLVQPGGSLRLSCAASGFTFSDYYMSWVRQAPGKGLEWVSGIYSDGSRKYYADSVKGRFTISRDNSKNTLYLQMNSLRAEDTAVYYCARHWSRFDYWGQGTLVTVSS VL: QSVLTQPPSASGTPGQRVTISCSGSSSNIGSNYVTWYQQLPRTAPKLLIYYDSNRPSGVPDRFSGSKSGTSASLAISGLRSEDEADYYCGAWDDSLSGYVFGGGTKLTVLG |
| binds | O31C (antibody, human IgG1, lambda, V domains shown) VH: EVQLLESGGGLVQPGGSLRLSCAASGFTFSDYDMSWVRQAPGKGLEWVSSISPSSGSIYYADSVKGRFTISRDNSKNTLYLQMNSLRAEDTAVYYCAKDSIWCTNSRCYYDNAMDVWGQGTLVTVSS VL: QSVLTQPPSASGTPGQRVTISCSGSSSNIGNNAVSWYQQLPGTAPKLLIYSDSNRPSGVPDRFSGSKSGTSASLAISGLRSEDEADYYCGSWDYSLSAYVFGGGTKLTVLG |
